Read-outs that look alike come from different tables or passages of the source. No constants are given. Whether binding was seen depends on the method and setting. Binding seen in cells or lysates may run through a third protein. These calls come from enrichment with a bait or labelling near it, and not all partners need be listed.
How the values were obtained:
Assay in all cases: affinity purification with mass spectrometry; VCAM or LRG covalently immobilised on the chip of a four-channel spectroscopic SPR biosensor; plasma of MDS patients flowed over; captured proteins removed with 10 mM sodium hydroxide, digested with trypsin and identified by LC-MS/MS (at least two unique peptides); only the target purified
[1] = biological target: Recombinant Human Vascular Cell Adhesion Protein 1 (human) (UniProt P19320)
[2] = biological target: T1, Recombinant Human Leucine-rich alpha-2-glycoprotein (human) (UniProt P02750)
T1 sequence: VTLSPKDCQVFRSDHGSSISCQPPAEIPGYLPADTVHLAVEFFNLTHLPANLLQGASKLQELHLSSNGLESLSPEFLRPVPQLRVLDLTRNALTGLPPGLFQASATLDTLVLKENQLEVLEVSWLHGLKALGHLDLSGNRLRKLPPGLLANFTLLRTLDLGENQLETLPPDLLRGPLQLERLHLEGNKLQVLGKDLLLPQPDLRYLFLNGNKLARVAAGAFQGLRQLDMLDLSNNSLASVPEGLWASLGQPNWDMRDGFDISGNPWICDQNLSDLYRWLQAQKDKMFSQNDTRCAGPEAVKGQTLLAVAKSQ

By UniProt entry, the sequences of proteins in these tests, tags left out. Where a name states a change or a piece, a line headed by the entry shows the natural chain unless it says otherwise. Residues count along the entry.
UniProt P19320, residues 25-698: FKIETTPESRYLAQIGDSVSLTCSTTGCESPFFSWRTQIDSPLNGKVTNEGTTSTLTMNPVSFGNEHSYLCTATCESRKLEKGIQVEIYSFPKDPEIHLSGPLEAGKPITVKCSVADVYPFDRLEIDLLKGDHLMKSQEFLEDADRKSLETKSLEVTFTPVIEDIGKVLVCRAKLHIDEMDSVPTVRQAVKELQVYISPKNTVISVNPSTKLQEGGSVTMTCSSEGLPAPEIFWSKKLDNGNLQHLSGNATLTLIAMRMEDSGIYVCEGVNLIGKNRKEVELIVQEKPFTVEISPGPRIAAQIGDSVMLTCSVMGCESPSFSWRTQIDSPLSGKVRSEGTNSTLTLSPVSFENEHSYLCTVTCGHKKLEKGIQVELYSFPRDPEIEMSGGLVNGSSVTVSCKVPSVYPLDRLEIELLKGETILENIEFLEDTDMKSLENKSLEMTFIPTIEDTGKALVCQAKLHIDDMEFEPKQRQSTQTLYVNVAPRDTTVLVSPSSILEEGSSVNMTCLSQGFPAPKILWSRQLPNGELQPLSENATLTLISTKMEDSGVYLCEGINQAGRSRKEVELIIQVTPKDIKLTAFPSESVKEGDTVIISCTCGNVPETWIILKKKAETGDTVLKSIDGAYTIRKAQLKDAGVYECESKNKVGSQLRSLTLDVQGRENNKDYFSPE
UniProt P02647: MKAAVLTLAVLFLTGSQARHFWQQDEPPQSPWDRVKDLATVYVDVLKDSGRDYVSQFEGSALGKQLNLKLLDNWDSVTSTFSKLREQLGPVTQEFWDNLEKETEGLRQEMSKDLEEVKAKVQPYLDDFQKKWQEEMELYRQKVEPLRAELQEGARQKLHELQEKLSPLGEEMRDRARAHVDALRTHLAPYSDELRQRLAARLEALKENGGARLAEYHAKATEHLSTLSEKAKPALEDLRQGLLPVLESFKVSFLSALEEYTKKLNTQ
UniProt Q86YZ3: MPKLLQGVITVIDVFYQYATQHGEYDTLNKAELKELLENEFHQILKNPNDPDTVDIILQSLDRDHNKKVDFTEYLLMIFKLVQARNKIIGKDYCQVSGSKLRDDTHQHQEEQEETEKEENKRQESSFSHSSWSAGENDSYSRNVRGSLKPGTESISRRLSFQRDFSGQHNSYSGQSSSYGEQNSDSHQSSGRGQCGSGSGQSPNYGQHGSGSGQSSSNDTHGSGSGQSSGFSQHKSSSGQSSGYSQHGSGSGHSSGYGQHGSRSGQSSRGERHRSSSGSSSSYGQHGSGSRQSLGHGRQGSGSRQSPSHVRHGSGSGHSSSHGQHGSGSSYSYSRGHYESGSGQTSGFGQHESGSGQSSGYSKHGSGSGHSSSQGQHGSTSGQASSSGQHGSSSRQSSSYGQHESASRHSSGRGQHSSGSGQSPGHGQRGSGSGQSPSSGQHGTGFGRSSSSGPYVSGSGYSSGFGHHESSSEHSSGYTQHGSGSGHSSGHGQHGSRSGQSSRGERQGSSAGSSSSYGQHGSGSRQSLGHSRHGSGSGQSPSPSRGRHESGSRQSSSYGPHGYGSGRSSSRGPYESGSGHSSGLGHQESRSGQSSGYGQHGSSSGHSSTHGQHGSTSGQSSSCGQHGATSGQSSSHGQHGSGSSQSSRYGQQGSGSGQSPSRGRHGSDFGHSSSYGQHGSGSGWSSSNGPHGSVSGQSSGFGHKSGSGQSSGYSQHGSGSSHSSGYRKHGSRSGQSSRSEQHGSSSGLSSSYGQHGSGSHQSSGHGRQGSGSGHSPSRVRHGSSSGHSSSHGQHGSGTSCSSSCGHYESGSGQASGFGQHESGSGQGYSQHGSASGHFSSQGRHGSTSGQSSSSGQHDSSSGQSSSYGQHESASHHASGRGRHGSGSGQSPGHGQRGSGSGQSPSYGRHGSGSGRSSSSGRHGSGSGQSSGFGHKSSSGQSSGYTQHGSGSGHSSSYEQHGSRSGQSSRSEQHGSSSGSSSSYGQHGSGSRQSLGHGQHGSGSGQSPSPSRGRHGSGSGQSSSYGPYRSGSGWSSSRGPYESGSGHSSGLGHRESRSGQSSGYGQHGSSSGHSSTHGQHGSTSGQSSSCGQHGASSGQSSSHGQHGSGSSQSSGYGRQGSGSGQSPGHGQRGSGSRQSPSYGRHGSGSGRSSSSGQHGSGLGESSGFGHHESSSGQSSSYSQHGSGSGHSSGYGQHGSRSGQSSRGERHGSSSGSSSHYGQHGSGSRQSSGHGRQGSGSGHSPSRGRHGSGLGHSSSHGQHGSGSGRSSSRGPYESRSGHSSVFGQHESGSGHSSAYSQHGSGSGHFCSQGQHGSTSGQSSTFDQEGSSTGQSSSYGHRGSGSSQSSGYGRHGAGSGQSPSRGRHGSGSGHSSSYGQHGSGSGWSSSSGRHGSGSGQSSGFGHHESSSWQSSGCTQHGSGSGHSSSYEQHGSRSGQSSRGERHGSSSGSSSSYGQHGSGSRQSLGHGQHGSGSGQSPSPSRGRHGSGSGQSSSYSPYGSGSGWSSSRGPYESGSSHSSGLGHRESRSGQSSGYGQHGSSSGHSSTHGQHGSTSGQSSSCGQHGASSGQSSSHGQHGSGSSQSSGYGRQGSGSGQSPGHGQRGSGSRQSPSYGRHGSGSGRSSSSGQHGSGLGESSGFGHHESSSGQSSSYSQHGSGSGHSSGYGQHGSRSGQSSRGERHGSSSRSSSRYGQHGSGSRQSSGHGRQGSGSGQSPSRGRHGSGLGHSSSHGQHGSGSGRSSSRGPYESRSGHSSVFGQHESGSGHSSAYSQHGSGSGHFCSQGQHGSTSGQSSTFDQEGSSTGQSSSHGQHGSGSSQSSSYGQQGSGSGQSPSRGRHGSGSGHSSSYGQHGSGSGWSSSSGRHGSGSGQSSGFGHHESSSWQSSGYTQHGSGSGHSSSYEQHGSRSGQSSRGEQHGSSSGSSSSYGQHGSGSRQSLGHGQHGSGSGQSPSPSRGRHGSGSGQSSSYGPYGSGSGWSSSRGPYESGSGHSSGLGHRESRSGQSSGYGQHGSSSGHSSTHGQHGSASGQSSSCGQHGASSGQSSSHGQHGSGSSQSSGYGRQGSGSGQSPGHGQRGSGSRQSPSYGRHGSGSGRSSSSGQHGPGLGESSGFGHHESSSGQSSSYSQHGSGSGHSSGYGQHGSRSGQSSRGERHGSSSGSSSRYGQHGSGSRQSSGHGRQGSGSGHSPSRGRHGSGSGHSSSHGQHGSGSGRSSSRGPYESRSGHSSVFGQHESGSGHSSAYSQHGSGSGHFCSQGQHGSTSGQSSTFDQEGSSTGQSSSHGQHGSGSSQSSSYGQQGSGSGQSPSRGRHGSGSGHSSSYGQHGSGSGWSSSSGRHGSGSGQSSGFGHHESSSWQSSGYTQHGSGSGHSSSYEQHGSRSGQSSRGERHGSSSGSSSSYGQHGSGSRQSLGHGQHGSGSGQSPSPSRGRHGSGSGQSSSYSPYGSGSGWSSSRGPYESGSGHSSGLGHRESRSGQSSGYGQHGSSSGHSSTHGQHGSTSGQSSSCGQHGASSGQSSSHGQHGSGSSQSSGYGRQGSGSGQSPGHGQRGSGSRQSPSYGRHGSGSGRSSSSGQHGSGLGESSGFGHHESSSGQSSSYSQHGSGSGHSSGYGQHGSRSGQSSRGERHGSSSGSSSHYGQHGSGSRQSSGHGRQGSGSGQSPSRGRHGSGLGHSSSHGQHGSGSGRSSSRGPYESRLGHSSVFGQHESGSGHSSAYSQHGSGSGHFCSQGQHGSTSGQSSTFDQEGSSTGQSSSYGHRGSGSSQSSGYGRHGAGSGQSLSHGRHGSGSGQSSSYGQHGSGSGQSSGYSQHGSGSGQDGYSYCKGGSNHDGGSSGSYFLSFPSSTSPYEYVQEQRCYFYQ
UniProt P25311, residues 21-298: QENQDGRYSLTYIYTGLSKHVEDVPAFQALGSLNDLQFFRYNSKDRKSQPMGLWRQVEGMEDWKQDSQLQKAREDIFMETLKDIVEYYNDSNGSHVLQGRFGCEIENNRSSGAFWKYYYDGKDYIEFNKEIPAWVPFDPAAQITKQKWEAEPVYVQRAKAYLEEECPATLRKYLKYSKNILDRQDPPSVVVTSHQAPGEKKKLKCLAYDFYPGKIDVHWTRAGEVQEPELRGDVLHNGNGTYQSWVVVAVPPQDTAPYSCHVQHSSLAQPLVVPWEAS

[3] = biological target: T1, Recombinant Human Leucine-rich alpha-2-glycoprotein (human); remark: listed apart in the source
[4] = biological target: Recombinant Human Vascular Cell Adhesion Protein 1 (human) (UniProt P19320); remark: listed apart in the source

Apolipoprotein A-I (from UniProt P02647)
binding [1]: binds

Hornerin (from UniProt Q86YZ3 1-2850)
binding [1]: binds | binding [2]: binds

Zinc-alpha-2-glycoprotein (from UniProt P25311 21-298)
binding [1]: binds | binding [2]: binds

B1: Gamma-glutamylcyclotransferase (enzyme, UniProt O75223 1-188)
chain: MANSGCKDVTGPDEESFLYFAYGSNLLTERIHLRNPSAAFFCVARLQDFKLDFGNSQGKTSQTWHGGIATIFQSPGDEVWGVVWKMNKSNLNSLDEQEGVKSGMYVVIEVKVATQEGKEITCRSYLMTNYESAPPSPQYKKIICMGAKENGLPLEYQEKLKAIEPNDYTGKVSEEIEDIIKKGETQTL
binding [3]: binds

B2: Protein S100-A8 (protein, UniProt P05109 1-93)
chain: MLTELEKALNSIIDVYHKYSLIKGNFHAVYRDDLKKLLETECPQYIRKKGADVWFKELDINTDGAVNFQEFLILVIKMGVAAHKKSHEESHKE
binding [3]: binds

B3: Apolipoprotein C-II (protein, UniProt P02655 23-101)
chain: TQQPQQDEMPSPTFLTQVKESLSSYWESAKTAAQNLYEKTYLPAVDEKLRDLYSKSTAAMSTYTGIFTDQVLSVLKGEE
binding [4]: binds

B4: Serum amyloid A-1 protein (protein, UniProt P0DJI8 19-122)
chain: RSFFSFLGEAFDGARDMWRAYSDMREANYIGSDKYFHARGNYDAAKRGPGGAWAAEVITDARENIQRFFGHGAEDSLADQAANEWGRSGKDPNHFRPAGLPEKY
binding [4]: binds

Source: PMC6718656
